The experiment has as its target T1, V5-tagged Zfp609 (mouse) (UniProt Q8BZ47).
T1 sequence: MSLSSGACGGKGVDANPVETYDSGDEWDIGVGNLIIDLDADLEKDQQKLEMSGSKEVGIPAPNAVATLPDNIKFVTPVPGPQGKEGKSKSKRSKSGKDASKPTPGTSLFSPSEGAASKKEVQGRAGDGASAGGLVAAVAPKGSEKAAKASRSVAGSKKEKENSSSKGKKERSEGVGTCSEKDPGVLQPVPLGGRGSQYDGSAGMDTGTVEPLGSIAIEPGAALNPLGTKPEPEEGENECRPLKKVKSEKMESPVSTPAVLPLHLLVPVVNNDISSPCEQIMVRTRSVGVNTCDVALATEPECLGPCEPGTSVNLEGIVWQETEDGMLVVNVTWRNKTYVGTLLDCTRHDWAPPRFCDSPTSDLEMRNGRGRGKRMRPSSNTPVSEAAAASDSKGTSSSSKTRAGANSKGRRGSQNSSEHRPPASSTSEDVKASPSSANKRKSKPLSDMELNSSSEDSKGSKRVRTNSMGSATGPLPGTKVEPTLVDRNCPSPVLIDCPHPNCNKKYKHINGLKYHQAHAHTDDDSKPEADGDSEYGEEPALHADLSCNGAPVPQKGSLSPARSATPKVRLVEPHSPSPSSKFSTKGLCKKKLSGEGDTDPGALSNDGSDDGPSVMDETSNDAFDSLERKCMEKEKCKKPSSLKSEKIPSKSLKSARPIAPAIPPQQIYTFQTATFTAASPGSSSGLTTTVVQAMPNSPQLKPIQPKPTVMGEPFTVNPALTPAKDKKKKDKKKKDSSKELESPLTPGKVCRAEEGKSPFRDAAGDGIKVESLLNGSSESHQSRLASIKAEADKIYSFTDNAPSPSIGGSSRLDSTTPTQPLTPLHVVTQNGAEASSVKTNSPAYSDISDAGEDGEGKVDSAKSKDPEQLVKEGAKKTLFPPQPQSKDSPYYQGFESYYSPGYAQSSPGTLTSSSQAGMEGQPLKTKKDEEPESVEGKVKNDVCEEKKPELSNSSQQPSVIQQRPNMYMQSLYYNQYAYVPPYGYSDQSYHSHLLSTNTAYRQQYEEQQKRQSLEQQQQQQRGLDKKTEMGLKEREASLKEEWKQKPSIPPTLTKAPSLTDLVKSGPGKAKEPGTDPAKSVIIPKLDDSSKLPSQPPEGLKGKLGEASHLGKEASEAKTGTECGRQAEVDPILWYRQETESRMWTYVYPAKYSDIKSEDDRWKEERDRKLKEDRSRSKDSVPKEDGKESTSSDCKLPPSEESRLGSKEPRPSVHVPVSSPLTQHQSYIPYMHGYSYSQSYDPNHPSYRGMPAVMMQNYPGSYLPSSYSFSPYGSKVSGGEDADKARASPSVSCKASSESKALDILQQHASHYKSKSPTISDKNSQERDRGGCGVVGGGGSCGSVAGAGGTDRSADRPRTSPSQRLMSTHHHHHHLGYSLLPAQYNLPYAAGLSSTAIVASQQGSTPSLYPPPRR
Description: affinity purification with mass spectrometry; anti-V5 agarose beads on nuclear extract of Zfp609-V5-expressing NSCs, 3 hr at 4°C, 225 U Benzonase, washes in C-100* (100 mM KCl, 0.02% NP-40); NSCs not expressing Zfp609-V5 as control; hits present in two purifications.

Results are given in words; binding and its absence hold for the method and conditions named. Binding seen in cells or lysates may run through a third protein. These calls come from enrichment with a bait or labelling near it, and not all partners need be listed. Tags and fused reporters may be left off the sequences shown.

B1: Cnp (protein, UniProt P16330 1-420)
chain: MNTSFTRKSHTFLPKLFFRKMSSSGAKEKPELQFPFLQDEDTVATLHECKTLFILRGLPGSGKSTLARLILEKYHDGTKMVSADAYKIIPGSRADFSEAYKRLDEDLAGYCRRDIRVLVLDDTNHERERLDQLFEMADQYQYQVVLVEPKTAWRLDCAQLKEKNQWQLSADDLKKLKPGLEKDFLPLYFGWFLTKKSSETLRKAGQVFLEELGNHKAFKKELRHFISGDEPKEKLELVSYFGKRPPGVLHCTTKFCDYGKAAGAEEYAQQEVVKRSYGKAFKLSISALFVTPKTAGAQVVLTDQELQLWPSDLDKPSASEGLPPGSRAHVTLGCAADVQPVQTGLDLLDILQQVKGGSQGEAVGELPRGKLYSLGKGRWMLSLTKKMEVKAIFTGYYGKGKPVPIHGSRKGGAMQICTII
With B1, the binding entry is reported as “binds”.

B2: Smc1a (protein, UniProt Q9CU62 1-1233)
chain: MGFLKLIEIENFKSYKGRQIIGPFQRFTAIIGPNGSGKSNLMDAISFVLGEKTSNLRVKTLRDLIHGAPVGKPAANRAFVSMVYSEEGAEDRTFARVIVGGSSEYKINNKVVQLHEYSEELEKLGILIKARNFLVFQGAVESIAMKNPKERTALFEEISRSGELAQEYDKRKKEMVKAEEDTQFNYHRKKNIAAERKEAKQEKEEADRYQRLKDEVVRAQVQLQLFKLYHNEVEIEKLNKELASKNKEIEKDKKRMDKVEDELKEKKKELGKMMREQQQIEKEIKEKDSELNQKRPQYIKAKENTSHKIKKLEAAKKSLQNAQKHYKKRKGDMDELEKEMLSVEKARQEFEERMEEESQSQGRDLTLEENQVKKYHRLKEEASKRAATLAQELEKFNRDQKADQDRLDLEERKKVETEAKIKQKLREIEENQKRIEKLEEYITTSKQSLEEQKKLEGELTEEVEMAKRRIDEINKELNQVMEQLGDARIDRQESSRQQRKAEIMESIKRLYPGSVYGRLIDLCQPTQKKYQIAVTKVLGKNMDAIIVDSEKTGRDCIQYIKEQRGEPETFLPLDYLEVKPTDEKLRELKGAKLVIDVIRYEPPHIKKALQYACGNALVCDNVEDARRIAFGGHQRHKTVALDGTLFQKSGVISGGASDLKAKARRWDEKAVDKLKEKKERLTEELKEQMKAKRKEAELRQVQSQAHGLQMRLKYSQSDLEQTKTRHLALNLQEKSKLESELANFGPRINDIKRIIQSREREMKDLKEKMNQVEDEVFEEFCREIGVRNIREFEEEKVKRQNEIAKKRLEFENQKTRLGIQLDFEKNQLKEDQDKVHMWEQTVKKDENEIEKLKKEEQRHMKIIDETMAQLQDLKNQHLAKKSEVNDKNHEMEEIRKKLGGANKEMTHLQKEVTAIETKLEQKRSDRHNLLQACKMQDIKLPLSKGTMDDISQEEGSSQGEESVSGSQRTSSIYAREALIEIDYGDLCEDLKDAQAEEEIKQEMNTLQQKLNEQQSVLQRIAAPNMKAMEKLESVRDKFQETSDEFEAARKRAKKAKQAFEQIKKERFDRFNACFESVATNIDEIYKALSRNSSAQAFLGPENPEEPYLDGINYNCVAPGKRFRPMDNLSGGEKTVAALALLFAIHSYKPAPFFVLDEIDAALDNTNIGKVANYIKEQSTCNFQAIVISLKEEFYTKAESLIGVYPEQGDCVISKVLTFDLTKYPDANPNPNEQ
Regarding B2, the binding entry was “binds”.

B3: Stag2 (protein, UniProt O35638 1-1231)
chain: MIAAPEIPTDFNLLQESETHFSSDTDFEDIEGKNQKQGKGKTCKKGKKGPAEKGKSGNGGGKPPSGSNRMNGHHQQNGVENMMLFEVVKMGKSAMQSVVDDWIESYKHDRDIALLDLINFFIQCSGCKGVVTAEMFRHMQNSEIIRKMTEEFDEDSGDYPLTMAGPQWKKFKSSFCEFIGVLVRQCQYSIIYDEYMMDTVISLLTGLSDSQVRAFRHTSTLAAMKLMTALVNVALNLSINMDNTQRQYEAERNKMIGKRANERLELLLQKRKELQENQDEIENMMNAIFKGVFVHRYRDAIAEIRAICIEEIGIWMKMYSDAFLNDSYLKYVGWTMHDKQGEVRLKCLTALQGLYYNKELNSKLELFTSRFKDRIVSMTLDKEYDVAVQAIKLLTLVLQSSEEVLTAEDCENVYHLVYSAHRPVAVAAGEFLYKKLFSRRDPEEDGLMKRRGRQGPNANLVKTLVFFFLESELHEHAAYLVDSMWDCATELLKDWECMNSLLLEEPLSGEEALTDRQESALIEIMLCTIRQAAECHPPVGRGTGKRVLTAKEKKTQLDDRTRITELFAVALPQLLAKYSVDAEKVTNLLQLPQYFDLEIYTTGRLEKHLDALLRQIRNIVEKHTDTDVLEACSKTYHALCNEEFTIFNRVDISRSQLIDELADKFNRLLEDFLQEGEEPDEDDAYQVLSTLKRITAFHNAHDLSKWDLFACNYKLLKTGIENGDMPEQIVIHALQCAHYVILWQLAKITESTSTKEDLLRLKKQMRVFCQICQHYLTNVNTTVKEQAFTILCDILMIFSHQIMSGGRDMLEPLVYTPDSSLQSELLSFILDHVFIEQDDDSNSADGQQEDEASKIEALHKRRNLLAAFCKLIVYTVVEMNTAADIFKQYMKYYNDYGDIIKETMSKTRQIDKIQCAKTLILSLQQLFNEMIQENGYNFDRSSSTFSGIKELARRFALTFGLDQLKTREAIAMLHKDGIEFAFKEPNPQGESHPPLNLAFLDILSEFSSKLLRQDKRTVYVYLEKFMTFQMSLRREDVWLPLMSYRNSLLAGGDDDTMSVISGMSSRGSTVRSKKSKPSTGKRKVVEGMQLALPEESSSSDSMWLSREQTLHTPVMMQTPQLTSTIMREPKRLRPEDSFMSVYPMQAEHHQTPLDYNRRGTSLMEDDEEPIVEDVMMSSEGRIEDLNEGMDFDTMDIDLPPSKNRRERTELKPDFFDPASIMDESVLGVSMF
For the molecule B3, the binding result was “binds”.

B4: Rad21 (protein, UniProt Q61550 1-635)
chain: MFYAHFVLSKRGPLAKIWLAAHWDKKLTKAHVFECNLESSVESIISPKVKMALRTSGHLLLGVVRIYHRKAKYLLADCNEAFIKIKMAFRPGVVDLPEENREAAYNAITLPEEFHDFDQPLPDLDDIDVAQQFSLNQSRVEEITMREEVGNISILQENDFGDFGMDDREIMREGSAFEDDDMLVSTSASNLLLEPEQSTSNLNEKMNHLEYEDQYKDDNFGEGNDGGILDDKLISNNDGGIFDDPPALSEAGVMLPEQPAHDDMDEDDNGSLGGPDSPDSVDPVEPMPTMTDQTTLVPNEEEAFALEPIDITVKETKAKRKRKLIVDSVKELDSKTIRAQLSDYSDIVTTLDLAPPTKKLMMWKETGGVEKLFFLPAQPLWNNRLLKLFTRCLTPLVPEDLRKRRKGGEADNLDEFLKEFENPEVPREEQQPQQQQPQPQRDVIDEPIIEEPSRLQDSVMEASRTTIEESAMPPPPPQGVKRKAGQIDPEPSIPPQQVEQMEIPPVELPPEEPPNICQLIPELELLPEKEKEKEKEKEEEEEEEDEDASGGDQDQEERRWNKRTQQMLHGLQRALAKTGAESISLLELCRNTNRKQAAAKFYSFLVLKKQQAIELTQEEPYSDIIATPGPRFHII
Take B4: the binding result is recorded as “binds”.

B5: Mlf2 (protein, UniProt Q99KX1 1-247)
chain: MFRFMRDVEPEDPMFLMDPFAIHRQHMSRMLSGGFGYSPFLSITDGNMPATRPASRRMQAGAVSPFGMLGMSGGFMDMFGMMNDMIGNMEHMAAGGNCQTFSSSTVISYSNTGDGAPKVYQETSEMRSAPGGIRETRRTVRDSDSGLEQMSIGHHIRDRAHILQRSRNHRTGDQEERQDYINLDESEAAAFDDEWRRETSRYRQQRPLEFRRHEASVGGGRRAEGPPRLAIQGPEDSPSRQSRRYDW
For the molecule B5, the binding entry was “binds”.

B6: Bag5 (protein, UniProt Q8CI32 1-447)
chain: MDMGNQHPSISRLQEIQREVKAIEPQVVGFSGLSDDKNYKRLERILTKQLFEIDSVDTEGKGDIQQARKRAAQETERLLKELEQNANHPHRIEIQNIFKEAQALVKDKIVPFYSGGNCVTDEFEEGIQDIILRLTHVKTGGKVSLRKARYRTLTKICAVQEVIEDCMKKQPSLPLSEDVHPSVAKINSVMCEVNKARGTLIALLMGVDSSETCRHLSCVLSGLIADLDALDVCGRTEIRNYRREVVEDINKLLKYLDLEEEADSTHAFDLGQNHSIIKIENVLKRMREIKNELLQAQSPPELYLRAKTELQGLIGQLDEVSLEKNPCIREARRRAVIEVQILITYLDLKEALEKRKLFPCEEHPPHKAVWEILGNLSEILGEVLSFGGNRTDKNYIRLEELLTKQLLALDAVDPQGEEKCKAARKQAVKLAQNILSYLDMKSDEWEY
On to B6, for which the binding result is reported as “binds”.

The record behind these values is PMC5263256.
